# Test results taken from PubChem BioAssay AID540275 (National Center for Advancing Translational Sciences (NCATS), 2011).
# Chains of the proteins cited; added tags and fusions are not shown.
# UniProt Q8NER1, whole entry, looked up: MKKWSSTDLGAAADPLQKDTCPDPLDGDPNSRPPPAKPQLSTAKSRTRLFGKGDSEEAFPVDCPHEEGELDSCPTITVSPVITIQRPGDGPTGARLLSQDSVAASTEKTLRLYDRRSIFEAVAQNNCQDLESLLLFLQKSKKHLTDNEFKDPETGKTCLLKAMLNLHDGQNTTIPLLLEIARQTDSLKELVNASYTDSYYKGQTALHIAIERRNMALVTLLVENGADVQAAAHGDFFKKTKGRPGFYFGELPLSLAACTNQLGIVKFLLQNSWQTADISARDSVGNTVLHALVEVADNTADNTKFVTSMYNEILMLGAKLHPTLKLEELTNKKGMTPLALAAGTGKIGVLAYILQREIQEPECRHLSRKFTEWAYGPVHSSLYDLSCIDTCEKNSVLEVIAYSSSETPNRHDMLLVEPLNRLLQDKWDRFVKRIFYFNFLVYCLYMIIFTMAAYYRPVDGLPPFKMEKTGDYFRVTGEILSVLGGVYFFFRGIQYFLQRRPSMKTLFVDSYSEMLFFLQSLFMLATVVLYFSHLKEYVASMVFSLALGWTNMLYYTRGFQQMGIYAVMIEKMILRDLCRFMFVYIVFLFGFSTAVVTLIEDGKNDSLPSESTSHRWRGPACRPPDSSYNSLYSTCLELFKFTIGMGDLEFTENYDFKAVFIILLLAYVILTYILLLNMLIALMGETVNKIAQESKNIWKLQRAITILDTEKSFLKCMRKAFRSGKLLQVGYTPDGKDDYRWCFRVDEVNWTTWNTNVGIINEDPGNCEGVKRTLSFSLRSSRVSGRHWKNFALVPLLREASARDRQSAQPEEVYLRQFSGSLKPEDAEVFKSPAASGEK
# Hit rate of the full screen: of about 320,000 compounds, about 620 (0.19%) were called active. This list was built around the results that the source calls inconclusive (neither active nor inactive); the mix of calls is not that of the screen. Cut-off read from the data, not from the text of the source: active = activation above about 80%; inconclusive = between about 30% and that limit; inactive = weaker than that.
# Biological target: Transient receptor potential cation channel subfamily V member 1 (Homo sapiens) (UniProt Q8NER1)
# Experiment: HTS Assay for Compounds that Act as Agonists of the Vanilloid Receptor 1; note: 0% is about no effect
# Conditions: TRPV1-expressing cells, Fluo-8 calcium influx, agonist mode; at 8.33 µM, active compounds read high
# Method in brief: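 Fluo-8 calcium influx in TRPV1-expressing cells, kinetic read (ex 480/em 520 nm). Compound added and read 3 min for agonist activity, followed by capsaicin at EC20 final and 2 min further read for enhancement.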
row,SMILES,activation
1,COc1ccc(NC(=O)c2ccccn2)cc1,inactive: 29.4%
2,Cc1ccc(C(=O)Nc2cnc3ccccc3c2)cc1,inconclusive: 53.5%
3,O=C(Nc1ccc(N2CCOCC2)c(F)c1)c1ccncc1,inconclusive: 38.4%
4,COCc1cccc(NC(=O)CCc2ccccc2)c1,inconclusive: 31.7%
5,CCCCS(=O)(=O)CC(COc1ccccc1)OC(=O)c1ccccc1 (stereo not given),inconclusive: 56.5%
6,O=C(Nc1ccc(Cl)cc1)c1ccc(-n2cncn2)c([N+](=O)[O-])c1,inconclusive: 33.3%
7,CN(C(=O)c1ccc(S(=O)(=O)N(C)C)cc1)c1ccc2ccccc2c1,inconclusive: 37.7%
8,Cc1ccc(S(=O)(=O)Oc2ccc(/C=N/NC(=O)c3cccnc3)cc2)cc1,inconclusive: 34.3%
9,Cc1ccnc(NCc2c(O)ccc3ccccc23)c1,inconclusive: 46.8%
10,COc1cc(NC(=S)NCc2cccnc2)c(OC)cc1Cl,inconclusive: 41%
11,COc1ccc(N2CCN(C(=O)NCc3cccc(OC)c3)CC2)cc1,inconclusive: 52%
12,COc1ccc(-n2nc(C(=O)NCC(=O)NCCCN3CCC(C)CC3)c3ccccc3c2=O)cc1Cl,inactive: -3%
13,CCOC(=O)c1c(NC(=O)c2ccc(S(=O)(=O)N3CCOCC3)cc2)sc2c1CCN(C(C)C)C2,inconclusive: 40.2%
14,Cc1ccc(C(C)NC(=O)/C(C#N)=C\c2c(C)[nH]c3ccccc23)cc1 (stereo not given),inconclusive: 47.3%
15,COc1ccc(OC)c(/C=N\NC(=O)CC(=O)NCCc2ccccc2)c1,inactive: -3.69%
16,CCOP(=O)(OCC)C(NC(=O)Nc1ccccc1)c1ccccc1 (stereo not given),inactive: -0.998%
17,COc1ccc(CC(=O)NNC(=S)Nc2ccccc2)cc1Cl,inactive: -7.24%
18,COc1ccc(CCN2C(=O)C(Oc3ccccc3C)C2c2ccc3c(c2)OCO3)cc1 (stereo not given),inconclusive: 42.5%
19,O=C(N/N=C/c1cccc(OC(=O)c2cccc(Br)c2)c1)c1ccncc1,inconclusive: 43.1%
20,O=C(Cc1cccs1)NCc1cc(Cl)cc(Cl)c1,inconclusive: 37.1%
21,COc1cccc(-c2nnc(Nc3nc4c(F)cccc4s3)o2)c1,inactive: 1.97%
22,COc1ccc(CCC(=O)Nc2cccc(Cl)c2)cc1,inconclusive: 39.2%
23,Cn1cnc(C(=O)N2CCN(c3ccccc3)CC2)c1C(=O)N1CCN(c2ccccc2)CC1,inactive: 0.563%

# 17 of these compounds in a different format:
row	SMILES	activation
7	CN(C(=O)c1ccc(S(=O)(=O)N(C)C)cc1)c1ccc2ccccc2c1	inconclusive: 37.7%
8	Cc1ccc(S(=O)(=O)Oc2ccc(/C=N/NC(=O)c3cccnc3)cc2)cc1	inconclusive: 34.3%
9	Cc1ccnc(NCc2c(O)ccc3ccccc23)c1	inconclusive: 46.8%
10	COc1cc(NC(=S)NCc2cccnc2)c(OC)cc1Cl	inconclusive: 41%
11	COc1ccc(N2CCN(C(=O)NCc3cccc(OC)c3)CC2)cc1	inconclusive: 52%
12	COc1ccc(-n2nc(C(=O)NCC(=O)NCCCN3CCC(C)CC3)c3ccccc3c2=O)cc1Cl	inactive: -3%
13	CCOC(=O)c1c(NC(=O)c2ccc(S(=O)(=O)N3CCOCC3)cc2)sc2c1CCN(C(C)C)C2	inconclusive: 40.2%
14	Cc1ccc(C(C)NC(=O)/C(C#N)=C\c2c(C)[nH]c3ccccc23)cc1 (stereo not given)	inconclusive: 47.3%
15	COc1ccc(OC)c(/C=N\NC(=O)CC(=O)NCCc2ccccc2)c1	inactive: -3.69%
16	CCOP(=O)(OCC)C(NC(=O)Nc1ccccc1)c1ccccc1 (stereo not given)	inactive: -0.998%
17	COc1ccc(CC(=O)NNC(=S)Nc2ccccc2)cc1Cl	inactive: -7.24%
18	COc1ccc(CCN2C(=O)C(Oc3ccccc3C)C2c2ccc3c(c2)OCO3)cc1 (stereo not given)	inconclusive: 42.5%
19	O=C(N/N=C/c1cccc(OC(=O)c2cccc(Br)c2)c1)c1ccncc1	inconclusive: 43.1%
20	O=C(Cc1cccs1)NCc1cc(Cl)cc(Cl)c1	inconclusive: 37.1%
21	COc1cccc(-c2nnc(Nc3nc4c(F)cccc4s3)o2)c1	inactive: 1.97%
22	COc1ccc(CCC(=O)Nc2cccc(Cl)c2)cc1	inconclusive: 39.2%
23	Cn1cnc(C(=O)N2CCN(c3ccccc3)CC2)c1C(=O)N1CCN(c2ccccc2)CC1	inactive: 0.563%

# Next part.

row,SMILES,activation
1,O=C(c1cccc(Cl)c1)N1CCN(c2ncnc3c2cnn3-c2ccccc2)CC1,inactive: 2.54%
2,COc1cc(NC(=O)CCC(=O)c2cccs2)cc(OC)c1,inconclusive: 34.7%
3,Cc1[nH]c2ccccc2c1/C=N/Nc1ccc([N+](=O)[O-])cc1,inactive: 9.66%
4,CC(=O)Nc1cccc(-c2nc3ccccc3s2)c1,inconclusive: 55.2%
5,COc1cccc(CNC(=O)C2CCCN(c3cnccn3)C2)c1 (stereo not given),inconclusive: 49.6%
6,O=C(/C=C/c1ccccc1)NC1CC2CCC1C2 (stereo not given),inconclusive: 49%
7,CCOC(=O)CSc1nc2ccccc2c(=O)n1C1CCCC1,inconclusive: 38.5%
8,CCN(CC)P(=O)(Nc1cccc(C(F)(F)F)c1)c1ccc(N(C)C)cc1NC(=O)c1ccco1 (stereo not given),inconclusive: 30.5%
9,O=C(NCCc1ccc(S(=O)(=O)N2CCCC2)cc1)c1cccs1,inconclusive: 53%
10,CC(=O)N1CCN(C(c2ccccc2)c2ccccc2)CC1,inconclusive: 57.4%
11,CC(C)OC(=O)c1ccc(COC(=O)c2cccc(-c3nnc(-c4ccccc4)o3)c2)cc1,inactive: -4.9%
12,CCOc1ccc2oc(C(=O)NCC3CCCO3)c(C)c2c1 (stereo not given),inconclusive: 52.1%
13,Cc1ccc2c(c1)N=C(c1ccccc1)CC(C(Cl)Cl)=N2,inconclusive: 33.7%
14,Cc1cccc(-n2c(C)cc(C(=O)NC3CCCCC3)c2C)c1,inconclusive: 67.5%
15,CC(C)Sc1nc2ccccc2n1CC(=O)NCc1ccc2c(c1)OCO2,inconclusive: 43.1%
16,O=C1C2C(C(=O)N1/N=C/c1cc([N+](=O)[O-])c(O)cc1O)C1C=CC2C12CC2 (stereo not given),inconclusive: 37.1%
17,Cc1ccc(OCC(=O)NC2CC(C)(C)NC(C)(C)C2)cc1C,inactive: 0.346%
18,CC(=O)CCc1ccc(OCCCCN2CCC(Cc3ccccc3)CC2)cc1,inactive: 6.18%
19,O=C(Nc1ccc(OC(F)F)cc1)c1cc(S(=O)(=O)N2CCOCC2)ccc1F,inconclusive: 38%
20,CC(Oc1ccc(Br)cc1Cl)C(=O)Nc1ccncc1 (stereo not given),inconclusive: 32.1%
21,COc1ccc([C@H]2CC(=O)C=C(c3ccc4c5c(cccc35)CC4)C2)cc1,inconclusive: 46.5%
22,COc1ccccc1NC(=O)NCCN1CCN(c2cccc(Cl)c2)CC1,inconclusive: 42.8%
23,CCCCCc1c2c(cc(O)c1C(=O)O)OC(=O)c1c(cc(OC)cc1C(=O)CCCC)O2,inactive: 26.3%

row,SMILES,activation
1,Cn1c(=O)nc2n(Cc3ccccc3)c3ccccc3cc-2c1=O,inactive: 6.74%
2,O=C(NCc1ccc(F)cc1)c1ccccc1OCc1ccccc1,inconclusive: 47.8%
3,CCc1ccc(OCC(=O)Nc2ccc3c(c2)COC3=O)cc1,inconclusive: 77.2%
4,Cn1c(=O)n(Cc2ccc(F)cc2)c(=O)c2c1nc1n2CCN1Cc1ccco1,inconclusive: 43.7%
5,CCCc1nc2ccccc2c(=O)n1/N=C/c1ccc(O)cc1,inactive: 21.8%
6,CCCCCCCCCC(=O)OCC(O)CO (stereo not given),inconclusive: 47.1%
7,COc1cccc(NC(=O)CN(C)C(=O)/C=C/c2cn(-c3ccccc3)nc2-c2cccs2)c1,inconclusive: 72.2%
8,N#C/C(=C\c1coc2ccc(O)cc2c1=O)C(=O)Nc1nc2ccccc2s1,inconclusive: 30.7%
9,COc1ccccc1NC(=O)CN1C(=O)COc2ccc(S(=O)(=O)N3CCC(C)CC3)cc21,inconclusive: 31%
10,Cc1c(/C=N/NC(=O)CNc2ccccc2)c2ccccn2c1C(=O)c1ccncc1,inactive: -0.918%
11,COc1cc(NC(=O)Cc2cccs2)cc(OC)c1,inconclusive: 39.8%
12,CCCCn1c(=O)n(Cc2cccc(F)c2)c(=O)c2c1ncn2Cc1ccco1,inconclusive: 41.4%
13,Cc1ccc(CNC(=O)C2CC2c2ccccc2)cc1 (stereo not given),inconclusive: 62.2%
14,O=C(/C=C/c1c(Cl)cccc1Cl)NCc1ccccc1,inconclusive: 42.5%
15,CC1CCCC(NC(=O)c2ccc3c(c2)OCO3)C1C (stereo not given),inconclusive: 56.7%
16,Cc1cc(C(=O)NC2CCCc3c2cnn3-c2cccc(C)c2C)c(C)o1 (stereo not given),inconclusive: 51.9%
17,Cc1ccc(-c2cc(C(=O)Nc3cnn(C45CC6CC(CC(C6)C4)C5)c3)no2)cc1,inactive: 5.01%
18,O=C(/C=C/c1cn(-c2ccccc2)nc1-c1ccc2c(c1)OCCO2)NCCO,inconclusive: 63.6%
19,Cc1ccc(C2=NS(=O)(=O)N(C)C(C(=O)NCc3ccc(F)cc3)=C2)cc1,inconclusive: 70.1%
20,Cn1c(C(=O)N2CCN(c3ccc([N+](=O)[O-])cc3)CC2)cc2c(=O)[nH]c3ccccc3c21,inactive: -1.38%
21,O=C(c1sc2ccccc2c1Cl)N(Cc1ccccc1Cl)C1CCS(=O)(=O)C1 (stereo not given),inconclusive: 36.7%
22,Cc1ccc(OCCOC(=O)Nc2ccccc2)cc1,inconclusive: 36.5%
23,Cc1cc(OCc2cc(C(=O)N3CCN(CC4CC4)CC3)no2)cc(C)c1Cl,inconclusive: 34.7%

row,SMILES,activation
1,COc1cccc(NC(=O)c2ccc(S(=O)(=O)N(C)C)cc2)c1,inconclusive: 60.4%
2,O=C(Nc1ccccc1)c1cc(N2CCOCC2)nc2ccccc12,inactive: 29.9%
3,Cc1ccc(Nc2nc(N)nc(CCl)n2)c(C)c1,inactive: -3.14%
4,Cc1cccc(OCC(=O)N/N=C\c2cn(C)c3ccccc23)c1,inactive: 0.921%
5,Cc1nn(C)c(C)c1NC(=O)Nc1ccc(Cl)c(Cl)c1,inconclusive: 35.9%
6,COC(=O)c1ccc2c(=O)n(-c3ccccc3F)c(=S)[nH]c2c1,inactive: 19.5%
7,Cc1[nH][nH]c(=O)c1C(c1ccc(-c2cccc(C(=O)O)c2)o1)c1c(C)[nH][nH]c1=O,inactive: 3.79%
8,Cc1cccc(OCc2occc2C(=O)Nc2cccc(-n3cnnn3)c2)c1,inconclusive: 65.7%
9,Cc1oc(-c2ccoc2)nc1CN(CC1CCC(=O)N1)C(C)C (stereo not given),inactive: -0.509%
10,CN=C1S/C(=C\c2cc(C)n(-c3ccccc3F)c2C)C(=O)N1C,inconclusive: 52.9%
11,CCOC(=O)C(=CNc1ccc(Oc2cncc(Cl)c2)nc1)C(=O)OCC,inconclusive: 38.5%
12,O=C(Nc1ncc2c(n1)CC(c1ccco1)CC2=O)c1ccc(Cl)cc1 (stereo not given),inconclusive: 61.3%
13,Cc1cc(/C=N/NC(=O)c2cccc([N+](=O)[O-])c2)c(C)n1-c1ccccc1,inconclusive: 43.4%
14,CS(=O)(=O)N1CCC(C(=O)NCc2ccc3c(c2)OCO3)CC1,inactive: -0.428%
15,CC(C)CC(=O)c1c[nH]c(C(=O)N2CCN(Cc3ccccc3)CC2)c1,inconclusive: 66.8%
16,CCn1ccnc1CN(C)Cc1cn(-c2ccc(C)cc2)nc1-c1ccc(F)cc1,inconclusive: 39.7%
17,COc1ccc(NC(=O)NCCc2ccc(Cl)cc2)cc1OC,inconclusive: 59.9%
18,CC1OC(Nc2cccc3ccccc23)C(O)C(O)C1O (stereo not given),inactive: 0.895%
19,Cc1cccc(C(=O)N[C@H](C(=O)Nc2ncc(C)s2)C(C)C)c1,inactive: 14.8%
20,O=C(NCc1cn(-c2ccccc2)nc1-c1ccccc1)c1ccc([N+](=O)[O-])cc1,inconclusive: 56.5%
21,O=C(c1ccc(-c2ccccc2)cc1)C1CCCN(Cc2ccncc2)C1 (stereo not given),inactive: -0.979%
